Experiment [1] deals with T1, Monkey CD228 protein (monkey).
T1 sequence: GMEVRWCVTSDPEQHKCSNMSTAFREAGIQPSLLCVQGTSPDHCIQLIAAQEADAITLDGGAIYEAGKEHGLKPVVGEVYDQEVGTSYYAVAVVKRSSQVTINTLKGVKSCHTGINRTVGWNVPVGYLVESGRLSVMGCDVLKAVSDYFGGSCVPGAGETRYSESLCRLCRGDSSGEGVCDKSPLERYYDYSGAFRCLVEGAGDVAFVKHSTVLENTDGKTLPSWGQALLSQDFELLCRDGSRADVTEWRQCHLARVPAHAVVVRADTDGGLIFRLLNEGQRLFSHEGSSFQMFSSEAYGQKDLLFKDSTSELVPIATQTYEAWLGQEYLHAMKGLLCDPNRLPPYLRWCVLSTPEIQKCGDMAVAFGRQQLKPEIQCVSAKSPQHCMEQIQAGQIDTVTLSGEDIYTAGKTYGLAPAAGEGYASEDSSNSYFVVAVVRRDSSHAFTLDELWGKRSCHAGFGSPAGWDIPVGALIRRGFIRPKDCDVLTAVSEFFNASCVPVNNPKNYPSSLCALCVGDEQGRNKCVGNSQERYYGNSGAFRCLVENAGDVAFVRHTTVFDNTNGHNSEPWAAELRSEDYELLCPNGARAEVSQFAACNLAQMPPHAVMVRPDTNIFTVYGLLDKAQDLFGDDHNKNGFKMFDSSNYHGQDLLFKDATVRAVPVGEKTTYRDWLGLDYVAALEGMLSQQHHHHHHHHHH
Nature of the experiment: SPR, BIAcore 8K.

Experiment [2] deals with T2, Human CD228 protein (human, UniProt P08582 20-708, limits assumed).
T2 construct: Recombinant protein made in CHO cells, purified over a Ni column; The printed entry begins with the leader (MRGPSG...) and ends with ten His; also called hCD228; CD228-His protein
T2 sequence: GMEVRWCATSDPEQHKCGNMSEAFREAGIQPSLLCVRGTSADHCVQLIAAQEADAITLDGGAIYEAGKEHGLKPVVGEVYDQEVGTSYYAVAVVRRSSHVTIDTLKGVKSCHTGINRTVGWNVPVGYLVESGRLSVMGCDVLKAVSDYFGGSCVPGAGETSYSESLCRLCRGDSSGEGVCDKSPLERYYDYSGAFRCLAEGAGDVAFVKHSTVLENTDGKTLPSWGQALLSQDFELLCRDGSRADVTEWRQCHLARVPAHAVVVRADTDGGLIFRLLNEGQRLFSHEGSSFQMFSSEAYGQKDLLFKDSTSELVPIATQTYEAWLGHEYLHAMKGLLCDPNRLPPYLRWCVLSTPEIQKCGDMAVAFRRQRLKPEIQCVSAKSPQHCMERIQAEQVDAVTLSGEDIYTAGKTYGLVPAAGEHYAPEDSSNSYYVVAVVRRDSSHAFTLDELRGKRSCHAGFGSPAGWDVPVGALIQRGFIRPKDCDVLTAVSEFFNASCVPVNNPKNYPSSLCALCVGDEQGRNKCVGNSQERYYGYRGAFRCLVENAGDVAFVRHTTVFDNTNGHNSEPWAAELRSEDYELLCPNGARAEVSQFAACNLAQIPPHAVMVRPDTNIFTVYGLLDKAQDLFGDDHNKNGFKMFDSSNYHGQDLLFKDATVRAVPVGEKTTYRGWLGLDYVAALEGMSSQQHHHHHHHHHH
Nature of the experiment: ELISA, plate coated with human CD228 protein. Here is the method:
Human CD228 protein (prepared by Boan, 20201014, SEQ ID NO: 41) was diluted to 0.1 μg/mL with a carbonate-buffered saline (hereinafter referred to as CBS) at pH 9.6. Microplates were coated with the protein at 100 μL/well, and incubated at 4° C. overnight. After washing, the microplates were blocked with skimmed milk powder. The plates were washed, before antibodies diluted with PBST (phosphate-buffered saline, Solarbio P1010, +0.05% Tween20) were added at 100 μL/well. The diluted antibodies were intact antibodies comprising Fc, Fab and the constant region serially 3-fold diluted from 0.1 μg/mL to 8 concentrations with PBST. After washing the plates, goat anti-human IgG (H+L)/HRP (diluted at 1:5000, KPL, 474-1006) was added at 100 μL/well, and the plates were incubated at 37° C. for 1 h. After washing the plates, TMB (Beijing Makewonderbio, 1001) was added at 100 μL/well for chromogenesis, and after 10 min, 50 μL of 2 M H₂SO₄ was added to stop the chromogenesis. OD450 was measured on a microplate reader. The antibody hL49 targeting CD228 from Seagen was used as a reference antibody in this study and the following studies.
In general terms: In an ELISA, binding on a coated surface is turned into a signal by an enzyme label.

The target in experiment [3] is T2, Human CD228 protein. Nature of the experiment: ELISA, plate coated with human CD228 protein at 0.1 ug/mL, goat anti-human IgG-HRP, OD450.
Experiment [4] concerns the target T2, Human CD228 protein. Nature of the experiment: SPR, BIAcore 8K. For orientation: SPR reads the build-up and loss of mass on a sensor chip optically.

These are yes or no findings as the source states them, for the method shown. Some binding calls cover weakened binding; strength is not graded here.

B1: CA149 (antibody, human IgG1, kappa, V domains shown)
VH: EVQLVESGGGVVQPGRSLRLSCAASGFTFSSYAMHWVRQAPGKGLEWVAVISFDGSNKYYTDSVKGRFTISRDNSKNTLYLQMNSLRAEDTAVYYCAREVPYYYGSGPFDYWGQGTLVTVSS
VL: EIVLTQSPATLSVSPGERATLSCRASQSVSSNLAWYQQKPGQAPRHLIDGASSRASGIPDRFSGSGSGTDFTLTISRLEPEDFAVYYCQQYGSSPPFTFGPGTKVDIKR
notes: Intact IgG1; also called CA149 antibody
For B1, the binding result in experiment [1] is “binds”.

B2: reference antibody hL49 (antibody, human IgG1, kappa, V domains shown)
VH: QVQLQESGPGLVKPSETLSLTCTVSGDSITSGYWNWIRQPPGKGLEYIGYISDSGITYYNPSLKSRVTISRDTSKNQYSLKLSSVTAADTAVYYCARRTLATYYAMDYWGQGTLVTVSS
VL: DFVMTQSPLSLPVTLGQPASISCRASQSLVHSDGNTYLHWYQQRPGQSPRLLIYRVSNRFSGVPDRFSGSGSGTDFTLKISRVEAEDVGVYYCSQSTHVPPTFGQGTKLEIKR
notes: also called H149; hL49 analogy
As to B2, the binding entry in the experiment with Human CD228 protein [2] and with Human CD228 protein [3] was “binds” each time.

B3: CA518 (antibody, human IgG1, kappa, V domains shown)
VH: EVQLVESGGGVVQPGRSLRLSCAASGFTFSSYAMHWVRQAPGKGLEWVAVISYDGSNKYHADSVKGRFTISRDNSKNTLFLQMNSLRAEDTAVYYCVRDVYHYGSRSPYYYGMDVWGQGTTVTVSS
VL: DIQMTQSPSSVSASVGDRVTITCRASQGISSWLAWYQQKPGKAPKLLIYAASSLQSGVPSRFSGSGSGTDFTLTISSLQPEDVATYYCQKYNSAPFTFGPGTKVDIKR
notes: Intact IgG1
For the molecule B3, the binding result (in experiment [1]; with Human CD228 protein [4]; with Human CD228 protein [2]; in the experiment with Human CD228 protein [3]) was “binds” throughout.
